{"source": "patent US20150071941A1", "about": "“TREATMENT OF ISCHEMIC RETINOPATHIES” (THE JOHNS HOPKINS UNIVERSITY, priority 2012, published 2015)", "type_in_all_cases": "cell-based, human", "settings_in_all_cases": "rapamycin 300 nM, two hours prior to hypoxia (8 hours)", "key": {"HIF-1α": {"system": "HIF-1α", "test": "MIO-M1 Müller cells: HIF-1α protein (Western blot)"}, "VEGF": {"system": "VEGF", "test": "MIO-M1 Müller cells: VEGF mRNA (RT-PCR) and secreted protein (ELISA)", "procedure": "(§1) Cell Culture and Reagents. MIO-M1 cells were a generous gift from Astrid Limb (University College London Institute of Ophthalmology). Isolation of primary Müller cells was performed as previously described (51). Primary human dermal microvascular endothelial cells (HMVEC) were obtained from Lonza and cultured according the manufacter's protocols. Recombinant ANGPTL4 and VEGF, and ANGPTL4 and VEGF ELISA kits were obtained from R&D Systems. The KDR inhibitor, SU1498, and rapamycin were obtained from Calbiochem. Digoxin was obtained from Sigma. Predesigned control (Scrambled) and ANGPTL4 and HIF-1β siRNA sequences were obtained from Qiagen. AdLacZ and AdCAS have been previously described (26).\n(§2) Quantitative Real-Time RT-PCR. RNA was isolated from culture cells or retinas with RNeasy Mini Kit (Qiagen) and cDNA prepared using MuLV Reverse Transcriptase (Applied Biosystems, Carlsbad, Calif.). Quantitative real-time PCR was performed with Power SYBR Green PCR Master Mix (Applied Biosystems) and MyiQ Real-Time PCR Detection System (Bio Rad). Normalization was done using cyclophilin A for mouse tissue and cell lines and β-actin for human cell lines. Primers for qPCR include: human VEGF, forward—[…] (SEQ ID NO:1) and reverse—[…] (SEQ ID NO:2); human ANGPTL4, forward—[…] (SEQ ID NO:3) and reverse—[…] (SEQ ID NO:4); human β-actin, forward—[…] […]"}, "ANGPTL4": {"system": "ANGPTL4", "test": "MIO-M1 Müller cells: ANGPTL4 mRNA (RT-PCR) and protein (Western blot/ELISA)", "procedure": "as §1, §2"}}, "note": "At least one structure is not confirmed: it was looked up by name or label, or the drawing left a doubt."}
{"smiles": "CO[C@H]1C[C@@H]2CC[C@@H](C)[C@@](O)(O2)C(=O)C(=O)N2CCCC[C@H]2C(=O)O[C@H]([C@H](C)C[C@@H]2CC[C@@H](O)[C@H](OC)C2)CC(=O)[C@H](C)/C=C(\\C)[C@@H](O)[C@@H](OC)C(=O)[C@H](C)C[C@H](C)/C=C/C=C/C=C/1C", "note": "[rapamycin]", "values": [{"measurement": "HIF-1 alpha protein accumulation", "setting": "HIF-1α", "value": "decreased HIF-1 alpha protein accumulation"}, {"measurement": "induction of VEGF mRNA and protein", "setting": "VEGF", "value": "decreased induction of VEGF and Angptl4 mRNA and protein"}, {"measurement": "induction of Angptl4 mRNA and protein", "setting": "ANGPTL4", "value": "decreased induction of VEGF and Angptl4 mRNA and protein"}]}
